{
  "sequences": {"note": "The chains behind the UniProt entries cited, without tags or fusion partners. Where a name states a change or a piece, a line headed by the entry shows the natural chain unless it says otherwise.", "UniProt Q96KA5": "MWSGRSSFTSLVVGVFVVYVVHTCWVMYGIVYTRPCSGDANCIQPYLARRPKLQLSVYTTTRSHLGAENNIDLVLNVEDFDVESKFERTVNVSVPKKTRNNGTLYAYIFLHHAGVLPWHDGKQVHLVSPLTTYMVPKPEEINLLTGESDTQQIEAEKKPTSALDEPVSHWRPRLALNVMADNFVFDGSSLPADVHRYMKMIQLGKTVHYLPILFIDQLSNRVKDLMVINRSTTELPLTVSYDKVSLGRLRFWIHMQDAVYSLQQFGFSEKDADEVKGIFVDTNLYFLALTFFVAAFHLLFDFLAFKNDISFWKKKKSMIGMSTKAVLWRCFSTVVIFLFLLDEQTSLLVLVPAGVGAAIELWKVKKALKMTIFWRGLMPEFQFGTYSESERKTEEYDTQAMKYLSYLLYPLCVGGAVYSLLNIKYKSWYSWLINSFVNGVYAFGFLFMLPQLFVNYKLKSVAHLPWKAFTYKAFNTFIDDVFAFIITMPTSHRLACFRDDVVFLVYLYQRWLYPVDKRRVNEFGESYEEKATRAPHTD", "UniProt Q92731": "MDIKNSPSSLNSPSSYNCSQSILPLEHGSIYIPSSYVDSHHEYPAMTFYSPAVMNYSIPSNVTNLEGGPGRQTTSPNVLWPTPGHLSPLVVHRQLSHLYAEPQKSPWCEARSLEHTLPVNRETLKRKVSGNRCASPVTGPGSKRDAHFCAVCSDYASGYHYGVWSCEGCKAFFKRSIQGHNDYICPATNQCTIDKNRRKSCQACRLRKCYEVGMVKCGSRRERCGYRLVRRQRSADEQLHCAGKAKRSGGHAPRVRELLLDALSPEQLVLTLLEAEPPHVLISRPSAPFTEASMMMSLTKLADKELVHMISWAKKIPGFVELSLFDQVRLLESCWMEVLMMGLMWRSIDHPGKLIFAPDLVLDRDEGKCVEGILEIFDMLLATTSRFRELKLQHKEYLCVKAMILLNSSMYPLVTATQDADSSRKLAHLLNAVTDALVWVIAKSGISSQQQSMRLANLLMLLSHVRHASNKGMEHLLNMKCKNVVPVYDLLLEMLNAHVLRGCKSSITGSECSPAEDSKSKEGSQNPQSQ"},
  "source": "paper PMC7499972",
  "target": "recombinant GST-CLPTM1L, wild type (human) (UniProt Q96KA5)",
  "test": "pull-down; GST pull-down of recombinant GST-CLPTM1L (wt or mut) with His-ERβ; glutathione beads washed six times with lysis buffer; western blot",
  "note": "These are yes or no findings as the source states them, for the method shown. In cells and extracts the contact can be indirect. Binding calls can cover weak binding; strength is not graded here.",
  "data": [
    {"substance": "recombinant His-ERβ (from UniProt Q92731 1-530)", "values": [
      {"measurement": "binding", "value": "binds"}
    ]}
  ]
}
